In the supplement of paper PMC10331698:
± gives the standard deviation of the averaged measurements. Most entries show no effect beyond the scatter of the controls.

Legend:
Test in all cases: level (log10 ratio to DMSO vehicle control); higher = higher biomarker level / cell amount than vehicle control
Perfluorononanoic acid = compound: O=C(O)C(F)(F)C(F)(F)C(F)(F)C(F)(F)C(F)(F)C(F)(F)C(F)(F)C(F)(F)F [Perfluorononanoic acid]; details: 2200 nM; in DMSO
Method: (§1)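 BioMAP Diversity Plus panel of 12 human primary cell co-culture systems (3C, 4H, LPS, SAg, BT, BF4T, BE3C, CASM3C, HDF3CGF, KF3CT, MyoF, Mphg). Compounds were added 1 h before stimulation and left for 24 h (MyoF 48 h; BT 72 h for soluble read-outs or 6 d for IgG). Biomarkers were read by ELISA, cytotoxicity by SRB, PBMC viability and proliferation by Alamar Blue. Each well value was divided by the mean of 8 DMSO control wells on the same plate and log10 transformed; duplicate blinded samples were tested at 4 concentrations.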

[1] = compound: OCC(F)(F)OC(F)(F)C(F)(F)OC(F)(F)C(F)(F)OC(F)(F)CO [1H,1H,11H,11H-Perfluorotetraethylene glycol]; details: 2200 nM; in DMSO
Method: as §1

[2] = compound: O=C(O)C(F)(F)C(F)(F)C(F)(F)C(F)(F)C(F)(F)C(F)(F)C(F)(F)F [Ammonium perfluorooctanoate]; details: 2200 nM; in DMSO
Method: as §1

[3] = compound: C=CC(=O)OCC(F)(F)C(F)(F)C(F)(F)C(F)(F)C(F)(F)C(F)(F)C(F)(F)C(F)F [1H,1H,9H-Perfluorononyl acrylate]; details: 2200 nM; in DMSO
Method: as §1

[4] = compound: FC(F)(F)C(F)(F)C(F)(F)C(F)(F)C(F)(F)C(F)(F)C(F)(F)C(F)(F)CCS [2-(Perfluorooctyl)ethanthiol]; details: in DMSO
Method: as §1

Perfluorooctanoic acid = compound: O=C(O)C(F)(F)C(F)(F)C(F)(F)C(F)(F)C(F)(F)C(F)(F)C(F)(F)F [Perfluorooctanoic acid]; details: 2200 nM; in DMSO
Method: as §1

[5] = compound: O=C(CC(=O)C(F)(F)C(F)(F)C(F)(F)F)c1cccs1 [(Perfluorobutyryl)-2-thenoylmethane]; details: 2200 nM; in DMSO
Method: as §1

[6] = compound: CCOC(=O)CC(=O)C(F)(F)C(F)(F)F [Ethyl pentafluoropropionyl acetate]; details: 2200 nM; in DMSO
Method: as §1

Perfluorooctanamidine = compound: N=C(N)C(F)(F)C(F)(F)C(F)(F)C(F)(F)C(F)(F)C(F)(F)C(F)(F)F [Perfluorooctanamidine]; details: in DMSO
Method: as §1

[7] = compound: O=C(O)C(F)(F)OC(F)(F)C(F)(F)OC(F)(F)C(F)(F)OC(F)(F)C(F)(F)C(F)(F)C(F)(F)F [Perfluoro-3,6,9-trioxatridecanoic acid]; details: 2200 nM; in DMSO
Method: as §1

Perfluorodecanoic acid = compound: O=C(O)C(F)(F)C(F)(F)C(F)(F)C(F)(F)C(F)(F)C(F)(F)C(F)(F)C(F)(F)C(F)(F)F [Perfluorodecanoic acid]; details: in DMSO
Method: as §1

[8] = compound: O=C(O)CCC(F)(C(F)(F)F)C(F)(F)F [4,4-bis(Trifluoromethyl)-4-fluoropropanoic acid]; details: 2200 nM; in DMSO
Method: as §1

[9] = compound: OCC(F)(F)C(F)(F)C(F)(F)C(F)(F)C(F)(F)C(F)(F)C(F)(F)C(F)(F)CO [1H,1H,10H,10H-Perfluorodecane-1,10-diol]; details: 2200 nM; in DMSO
Method: as §1

[10] = compound: O=C(O)C(F)(F)OC(F)(F)C(F)(F)OC(F)(F)F [Perfluoro-3,6-dioxaheptanoic acid]; details: 2200 nM; in DMSO
Method: as §1

| Test System | level (log10) (Perfluorononanoic acid) | level (log10) [1] | level (log10) [2] | level (log10) [3] | level (log10) ([4]; 740 nM) | level (log10) ([4]; 2200 nM) | level (log10) (Perfluorooctanoic acid) | level (log10) [5] | level (log10) [6] | level (log10) (Perfluorooctanamidine; 2200 nM) | level (log10) (Perfluorooctanamidine; 6700 nM) | level (log10) (Perfluorooctanamidine; 20000 nM) | level (log10) (Perfluorooctanamidine; 60000 nM) | level (log10) [7] | level (log10) (Perfluorodecanoic acid; 2200 nM) | level (log10) (Perfluorodecanoic acid; 6700 nM) | level (log10) (Perfluorodecanoic acid; 20000 nM) | level (log10) [8] | level (log10) [9] | level (log10) [10] |
| --- | --- | --- | --- | --- | --- | --- | --- | --- | --- | --- | --- | --- | --- | --- | --- | --- | --- | --- | --- | --- |
| LPS:IL-1alpha | -0.035 ± 0.018 | 0.007 ± 0.024 | 0.009 ± 0.017 | 0.0185 ± 0.023 | -0.032 ± 0.038 | -0.093 ± 0.0042 | 0.0185 ± 0.025 | -0.0385 ± 0.023 | -0.009 ± 0.02 | 0.03 ± 0.013 | 0.011 ± 0.024 | -0.0095 ± 0.049 | -0.003 | -0.018 ± 0.065 | 0.0165 ± 0.018 | 0.0275 ± 0.016 | -0.0125 ± 0.0092 | 0.0445 ± 0.0078 | 0.0085 ± 0.035 | -0.046 ± 0.021 |
| BE3C:uPA | -0.047 ± 0.033 | -0.0005 ± 0.018 | 0.0065 ± 0.0035 | -0.011 ± 0.048 | 0.0055 ± 0.0035 | -0.0045 ± 0.00071 | 0.0105 ± 0.021 | 0.016 ± 0.0071 | -0.015 ± 0.023 | -0.0055 ± 0.013 | -0.008 ± 0.011 | -0.0095 ± 0.0078 | 0.004 | 0.0175 ± 0.0078 | -0.02 ± 0.02 | -0.0025 ± 0.011 | -0.38 ± 0.0099 | -0.013 ± 0.016 | -0.0035 ± 0.026 | -0.047 ± 0.071 |
| HDF3CGF:SRB | 0.0145 ± 0.033 | -0.044 ± 0.027 | 0.0425 ± 0.059 | 0.0175 ± 0.012 | -0.007 ± 0.028 | -0.0045 ± 0.0078 | -0.02 ± 0.0042 | 0.0395 ± 0.005 | 0.0155 ± 0.052 | -0.037 ± 0.023 | -0.01 ± 0.017 | 0.0155 ± 0.0035 | -0.048 | 0.0185 ± 0.0035 | 0.06 ± 0.0071 | 0.0725 ± 0.044 | 0.131 ± 0.016 | -0.0445 ± 0.032 | -0.011 ± 0.0099 | -0.007 ± 0.025 |
| SAg:CXCL9/MIG | 0.0075 ± 0.013 | -0.011 ± 0.011 | 0.0055 ± 0.012 | -0.0025 ± 0.005 | -0.0035 ± 0.023 | 0.0035 ± 0.012 | -0.0025 ± 0.012 | -0.002 ± 0.0085 | -0.0115 ± 0.018 | 0.0085 ± 0.018 | 0 ± 0.0085 | 0.0085 ± 0.0021 | 0.007 | -0.0035 ± 0.0035 | 0 ± 0.014 | -0.006 ± 0.011 | -0.0025 ± 0.015 | 0.001 ± 0.016 | -0.017 ± 0.0057 | 0.0255 ± 0.013 |
| BE3C:MMP-9 | -0.036 ± 0.023 | 0.0085 ± 0.012 | -0.0185 ± 0.0035 | 0.014 ± 0.016 | -0.038 ± 0.02 | -0.008 ± 0.017 | -0.006 ± 0.021 | -0.06 ± 0.0014 | 0.0005 ± 0.042 | 0.005 ± 0.059 | -0.0115 ± 0.005 | -0.015 ± 0.023 | -0.001 | -0.0105 ± 0.03 | -0.0155 ± 0.033 | 0.008 ± 0.014 | -0.458 ± 0.0028 | 0.0025 ± 0.028 | 0.0155 ± 0.013 | -0.0295 ± 0.0092 |
| CASM3C:CXCL8/IL-8 | 0.017 ± 0.0014 | 0.0095 ± 0.016 | 0.005 ± 0.0042 | 0.023 ± 0.0042 | 0.0355 ± 0.07 | 0.0135 ± 0.054 | 0.0085 ± 0.0021 | -0.0135 ± 0.021 | -0.008 | 0.026 ± 0.011 | 0.011 ± 0.017 | 0.0075 ± 0.0092 | 0.053 | 0.0155 ± 0.04 | -0.013 ± 0.018 | -0.0035 ± 0.0064 | -0.006 ± 0.0028 | 0.003 ± 0.034 | 0.007 ± 0.033 | 0.028 ± 0.0071 |
| 3C:CXCL9/MIG | -0.004 ± 0.0014 | -0.007 ± 0.023 | -0.0035 ± 0.019 | -0.003 ± 0.0099 | -0.0185 ± 0.00071 | 0.0015 ± 0.013 | 0.007 ± 0.017 | -0.009 ± 0.018 | -0.0055 ± 0.011 | 0.009 ± 0.0028 | 0.007 ± 0.0071 | -0.0165 ± 0.0035 | 0.005 | -0.007 ± 0.016 | -0.006 ± 0.014 | 0.002 | 0.0005 ± 0.0064 | 0.0105 ± 0.0078 | -0.003 ± 0.0042 | -0.0045 ± 0.0092 |
| BT:sIL-6 | -0.0265 ± 0.0021 | -0.0665 ± 0.013 | -0.024 ± 0.1 | -0.031 ± 0.017 | 0.009 ± 0.017 | -0.0255 ± 0.046 | 0.0775 ± 0.021 | 0.0055 ± 0.0092 | -0.039 ± 0.059 | 0.075 ± 0.054 | 0.0205 ± 0.025 | -0.0285 ± 0.016 | -0.097 | -0.0315 ± 0.029 | -0.0305 ± 0.057 | -0.029 ± 0.071 | 0.077 ± 0.058 | 0.0325 ± 0.00071 | 0.012 ± 0.016 | 0.014 ± 0.014 |
| MyoF:Collagen I | -0.0425 ± 0.015 | 0.0065 ± 0.018 | -0.0255 ± 0.0078 | 0.005 ± 0.033 | 0.003 ± 0.0014 | -0.005 | 0.0035 ± 0.005 | -0.026 ± 0.031 | -0.006 ± 0.028 | -0.005 ± 0.024 | -0.0005 ± 0.013 | 0.007 ± 0.0085 | 0.047 | -0.011 ± 0.013 | 0.0095 ± 0.00071 | -0.0065 ± 0.059 | -0.417 ± 0.071 | -0.0055 ± 0.016 | -0.0005 ± 0.026 | -0.0165 ± 0.023 |
| 3C:CD54/ICAM-1 | -0.0175 ± 0.00071 | 0.004 ± 0.016 | 0.0185 ± 0.005 | -0.0035 ± 0.0078 | -0.0015 ± 0.026 | -0.005 ± 0.013 | 0.0025 ± 0.013 | -0.006 ± 0.0057 | -0.007 ± 0.018 | -0.001 ± 0.02 | -0.0065 ± 0.0035 | -0.038 ± 0.013 | -0.049 | 0.001 ± 0.028 | 0.014 ± 0.02 | 0.0105 ± 0.0021 | 0.015 ± 0.0071 | -0.009 ± 0.031 | -0.0035 ± 0.00071 | -0.009 ± 0.02 |
| KF3CT:CXCL9/MIG | -0.0275 ± 0.011 | 0.004 ± 0.021 | 0.003 ± 0.0028 | -0.0075 ± 0.005 | 0.017 ± 0.014 | 0.0075 ± 0.00071 | 0.0055 ± 0.005 | 0.012 ± 0.011 | -0.002 ± 0.0071 | 0.0085 ± 0.0064 | -0.0015 ± 0.011 | -0.0005 ± 0.0092 | 0.015 | 0.011 ± 0.031 | 0.0105 ± 0.0064 | 0.0065 ± 0.0078 | -0.0185 ± 0.0035 | -0.019 ± 0.016 | -0.006 ± 0.0071 | -0.017 ± 0.017 |
| BF4T:MMP-9 | -0.0205 ± 0.054 | 0.028 ± 0.0057 | 0.0175 ± 0.0064 | 0.0255 ± 0.037 | -0.0125 ± 0.0021 | -0.051 ± 0.018 | -0.0015 ± 0.033 | -0.011 ± 0.03 | -0.009 ± 0.065 | 0.0115 ± 0.019 | -0.006 ± 0.0057 | -0.0115 ± 0.013 | 0.053 | -0.019 ± 0.045 | -0.013 ± 0.013 | -0.025 ± 0.0057 | -0.282 ± 0.023 | 0.0435 ± 0.022 | 0.002 | -0.0325 ± 0.033 |

Taken from the entries so far (2 entries):

| Test System | level (log10) (Perfluorononanoic acid) | level (log10) [1] | level (log10) [2] | level (log10) [3] | level (log10) ([4]; 740 nM) | level (log10) ([4]; 2200 nM) | level (log10) (Perfluorooctanoic acid) | level (log10) [5] | level (log10) [6] | level (log10) (Perfluorooctanamidine; 2200 nM) | level (log10) (Perfluorooctanamidine; 6700 nM) | level (log10) (Perfluorooctanamidine; 20000 nM) | level (log10) (Perfluorooctanamidine; 60000 nM) | level (log10) [7] | level (log10) (Perfluorodecanoic acid; 2200 nM) | level (log10) (Perfluorodecanoic acid; 6700 nM) | level (log10) (Perfluorodecanoic acid; 20000 nM) | level (log10) [8] | level (log10) [9] | level (log10) [10] |
| --- | --- | --- | --- | --- | --- | --- | --- | --- | --- | --- | --- | --- | --- | --- | --- | --- | --- | --- | --- | --- |
| 3C:CD54/ICAM-1 | -0.0175 ± 0.00071 | 0.004 ± 0.016 | 0.0185 ± 0.005 | -0.0035 ± 0.0078 | -0.0015 ± 0.026 | -0.005 ± 0.013 | 0.0025 ± 0.013 | -0.006 ± 0.0057 | -0.007 ± 0.018 | -0.001 ± 0.02 | -0.0065 ± 0.0035 | -0.038 ± 0.013 | -0.049 | 0.001 ± 0.028 | 0.014 ± 0.02 | 0.0105 ± 0.0021 | 0.015 ± 0.0071 | -0.009 ± 0.031 | -0.0035 ± 0.00071 | -0.009 ± 0.02 |
| KF3CT:CXCL9/MIG | -0.0275 ± 0.011 | 0.004 ± 0.021 | 0.003 ± 0.0028 | -0.0075 ± 0.005 | 0.017 ± 0.014 | 0.0075 ± 0.00071 | 0.0055 ± 0.005 | 0.012 ± 0.011 | -0.002 ± 0.0071 | 0.0085 ± 0.0064 | -0.0015 ± 0.011 | -0.0005 ± 0.0092 | 0.015 | 0.011 ± 0.031 | 0.0105 ± 0.0064 | 0.0065 ± 0.0078 | -0.0185 ± 0.0035 | -0.019 ± 0.016 | -0.006 ± 0.0071 | -0.017 ± 0.017 |
